# Reference: the supplement of paper PMC10849652
# Sequences of proteins named here, by UniProt entry; tags and fusion partners are left off. A change or cut given only in a name is not applied to a line headed by its entry.
# UniProt Q9P0J7: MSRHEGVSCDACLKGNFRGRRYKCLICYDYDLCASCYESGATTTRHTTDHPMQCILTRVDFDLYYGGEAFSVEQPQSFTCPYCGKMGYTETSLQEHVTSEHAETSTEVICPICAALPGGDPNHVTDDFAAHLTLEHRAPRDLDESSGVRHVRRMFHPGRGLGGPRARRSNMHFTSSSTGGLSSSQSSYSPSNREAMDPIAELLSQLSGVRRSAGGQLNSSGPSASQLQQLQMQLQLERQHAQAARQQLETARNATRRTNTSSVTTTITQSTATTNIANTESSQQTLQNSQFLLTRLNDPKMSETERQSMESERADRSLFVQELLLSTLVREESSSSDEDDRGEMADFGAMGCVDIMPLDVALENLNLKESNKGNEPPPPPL
# UniProt Q92830, whole entry, looked up: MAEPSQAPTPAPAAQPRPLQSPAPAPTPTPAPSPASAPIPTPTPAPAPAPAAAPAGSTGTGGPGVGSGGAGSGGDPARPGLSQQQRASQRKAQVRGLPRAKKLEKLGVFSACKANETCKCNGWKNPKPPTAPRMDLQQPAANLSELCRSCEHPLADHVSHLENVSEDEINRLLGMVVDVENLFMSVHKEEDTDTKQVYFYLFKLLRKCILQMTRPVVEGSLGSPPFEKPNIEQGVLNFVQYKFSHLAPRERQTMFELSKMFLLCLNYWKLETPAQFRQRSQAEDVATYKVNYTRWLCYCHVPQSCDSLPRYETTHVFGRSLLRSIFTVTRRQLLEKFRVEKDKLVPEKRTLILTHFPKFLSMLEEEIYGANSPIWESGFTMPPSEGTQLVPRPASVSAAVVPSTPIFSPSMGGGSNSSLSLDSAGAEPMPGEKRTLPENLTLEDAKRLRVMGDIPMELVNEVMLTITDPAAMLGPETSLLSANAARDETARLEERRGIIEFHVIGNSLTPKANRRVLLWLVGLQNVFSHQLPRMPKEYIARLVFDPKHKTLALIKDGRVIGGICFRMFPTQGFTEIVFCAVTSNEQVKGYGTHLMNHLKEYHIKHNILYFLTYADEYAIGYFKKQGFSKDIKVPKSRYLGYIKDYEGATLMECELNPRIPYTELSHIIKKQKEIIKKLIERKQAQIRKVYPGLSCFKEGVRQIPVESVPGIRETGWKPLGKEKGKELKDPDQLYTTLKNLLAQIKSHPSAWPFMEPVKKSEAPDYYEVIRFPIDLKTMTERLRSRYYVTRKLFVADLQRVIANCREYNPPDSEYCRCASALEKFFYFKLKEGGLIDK
# UniProt Q8NB78: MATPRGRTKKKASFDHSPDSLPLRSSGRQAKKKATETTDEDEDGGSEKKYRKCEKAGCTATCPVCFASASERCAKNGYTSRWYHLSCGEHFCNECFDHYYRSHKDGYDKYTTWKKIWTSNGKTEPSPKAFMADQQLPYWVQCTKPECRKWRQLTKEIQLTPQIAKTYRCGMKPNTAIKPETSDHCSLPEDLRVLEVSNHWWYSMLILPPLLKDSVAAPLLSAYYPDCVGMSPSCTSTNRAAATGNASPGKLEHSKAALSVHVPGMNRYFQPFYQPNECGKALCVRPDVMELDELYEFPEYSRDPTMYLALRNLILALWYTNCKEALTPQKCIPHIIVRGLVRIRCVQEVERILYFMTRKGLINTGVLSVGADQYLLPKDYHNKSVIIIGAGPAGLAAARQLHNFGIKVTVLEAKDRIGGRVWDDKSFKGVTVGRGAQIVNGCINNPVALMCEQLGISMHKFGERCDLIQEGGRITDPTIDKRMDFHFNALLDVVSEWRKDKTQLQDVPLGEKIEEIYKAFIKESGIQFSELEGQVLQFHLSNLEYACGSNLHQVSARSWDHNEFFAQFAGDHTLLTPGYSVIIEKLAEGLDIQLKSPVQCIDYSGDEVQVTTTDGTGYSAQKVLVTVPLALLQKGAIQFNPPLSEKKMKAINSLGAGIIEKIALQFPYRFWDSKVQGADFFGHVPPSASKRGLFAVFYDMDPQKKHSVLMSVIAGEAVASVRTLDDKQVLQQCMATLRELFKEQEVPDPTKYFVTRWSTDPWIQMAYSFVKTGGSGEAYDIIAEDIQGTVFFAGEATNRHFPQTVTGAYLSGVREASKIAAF
# UniProt Q9Y4H2: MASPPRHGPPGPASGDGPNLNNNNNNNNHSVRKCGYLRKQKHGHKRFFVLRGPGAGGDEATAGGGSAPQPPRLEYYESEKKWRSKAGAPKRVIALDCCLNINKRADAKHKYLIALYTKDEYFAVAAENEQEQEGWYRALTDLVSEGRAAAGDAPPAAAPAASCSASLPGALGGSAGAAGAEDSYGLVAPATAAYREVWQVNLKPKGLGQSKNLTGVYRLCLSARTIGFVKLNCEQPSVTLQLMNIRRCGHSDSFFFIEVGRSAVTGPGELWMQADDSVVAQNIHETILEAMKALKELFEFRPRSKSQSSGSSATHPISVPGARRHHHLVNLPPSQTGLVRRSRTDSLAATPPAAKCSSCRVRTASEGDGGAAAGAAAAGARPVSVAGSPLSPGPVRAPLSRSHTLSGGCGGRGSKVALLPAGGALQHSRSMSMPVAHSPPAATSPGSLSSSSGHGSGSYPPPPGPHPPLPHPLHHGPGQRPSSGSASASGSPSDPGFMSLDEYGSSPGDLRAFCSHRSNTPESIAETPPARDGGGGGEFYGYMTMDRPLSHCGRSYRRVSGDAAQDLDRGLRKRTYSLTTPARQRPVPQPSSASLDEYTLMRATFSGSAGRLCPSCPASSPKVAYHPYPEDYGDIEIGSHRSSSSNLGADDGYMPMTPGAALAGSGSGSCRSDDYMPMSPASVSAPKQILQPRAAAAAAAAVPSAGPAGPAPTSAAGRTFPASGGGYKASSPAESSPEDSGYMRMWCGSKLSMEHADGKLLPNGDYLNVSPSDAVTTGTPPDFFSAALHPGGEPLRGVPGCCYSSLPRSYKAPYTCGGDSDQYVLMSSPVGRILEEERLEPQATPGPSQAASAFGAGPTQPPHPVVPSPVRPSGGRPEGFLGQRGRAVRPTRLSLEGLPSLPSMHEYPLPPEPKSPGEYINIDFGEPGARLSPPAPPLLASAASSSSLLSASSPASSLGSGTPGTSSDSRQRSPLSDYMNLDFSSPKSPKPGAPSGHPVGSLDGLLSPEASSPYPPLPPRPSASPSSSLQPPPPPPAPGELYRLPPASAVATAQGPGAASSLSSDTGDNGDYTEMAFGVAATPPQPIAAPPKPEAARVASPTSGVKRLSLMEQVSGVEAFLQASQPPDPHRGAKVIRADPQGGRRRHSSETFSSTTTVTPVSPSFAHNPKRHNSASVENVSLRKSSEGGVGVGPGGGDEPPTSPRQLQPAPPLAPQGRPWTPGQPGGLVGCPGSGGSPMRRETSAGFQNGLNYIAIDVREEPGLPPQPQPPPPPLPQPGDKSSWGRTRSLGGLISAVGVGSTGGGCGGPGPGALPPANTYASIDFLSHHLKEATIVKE
# UniProt Q8N5M9: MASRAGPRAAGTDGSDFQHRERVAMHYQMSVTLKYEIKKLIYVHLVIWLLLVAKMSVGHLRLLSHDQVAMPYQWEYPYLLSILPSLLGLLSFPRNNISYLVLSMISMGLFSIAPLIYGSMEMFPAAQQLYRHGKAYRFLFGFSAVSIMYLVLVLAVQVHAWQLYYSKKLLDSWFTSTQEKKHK
# UniProt P28290: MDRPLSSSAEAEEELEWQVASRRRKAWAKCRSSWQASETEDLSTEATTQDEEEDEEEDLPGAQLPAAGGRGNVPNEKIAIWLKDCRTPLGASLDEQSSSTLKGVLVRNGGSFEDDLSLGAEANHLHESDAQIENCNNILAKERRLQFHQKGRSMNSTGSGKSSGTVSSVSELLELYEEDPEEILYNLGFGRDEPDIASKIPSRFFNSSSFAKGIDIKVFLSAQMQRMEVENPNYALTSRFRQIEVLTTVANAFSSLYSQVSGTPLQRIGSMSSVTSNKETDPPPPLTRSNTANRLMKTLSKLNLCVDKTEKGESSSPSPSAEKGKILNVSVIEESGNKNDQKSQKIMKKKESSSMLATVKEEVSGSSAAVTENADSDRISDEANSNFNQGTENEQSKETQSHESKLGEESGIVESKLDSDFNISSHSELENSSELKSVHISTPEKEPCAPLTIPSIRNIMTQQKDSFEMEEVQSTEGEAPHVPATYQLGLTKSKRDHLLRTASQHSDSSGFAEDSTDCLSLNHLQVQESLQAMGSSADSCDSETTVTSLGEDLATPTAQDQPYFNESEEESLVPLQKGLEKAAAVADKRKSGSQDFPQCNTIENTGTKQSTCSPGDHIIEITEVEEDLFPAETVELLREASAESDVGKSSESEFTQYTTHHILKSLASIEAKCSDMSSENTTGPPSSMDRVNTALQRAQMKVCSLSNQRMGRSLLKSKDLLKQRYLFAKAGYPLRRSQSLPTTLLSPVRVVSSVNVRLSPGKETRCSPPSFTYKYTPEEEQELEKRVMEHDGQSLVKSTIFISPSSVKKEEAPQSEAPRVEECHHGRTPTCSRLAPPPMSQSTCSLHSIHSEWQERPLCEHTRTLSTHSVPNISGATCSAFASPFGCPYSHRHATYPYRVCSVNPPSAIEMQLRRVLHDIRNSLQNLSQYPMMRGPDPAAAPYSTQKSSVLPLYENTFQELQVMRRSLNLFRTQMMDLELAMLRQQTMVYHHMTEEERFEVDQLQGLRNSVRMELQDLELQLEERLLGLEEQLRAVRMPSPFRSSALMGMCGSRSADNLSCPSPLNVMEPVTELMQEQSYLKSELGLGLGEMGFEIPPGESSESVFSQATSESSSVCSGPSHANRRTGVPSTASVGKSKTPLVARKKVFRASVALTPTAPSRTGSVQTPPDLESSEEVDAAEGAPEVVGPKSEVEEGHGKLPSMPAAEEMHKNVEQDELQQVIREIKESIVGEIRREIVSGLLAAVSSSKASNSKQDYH
# UniProt P0C870: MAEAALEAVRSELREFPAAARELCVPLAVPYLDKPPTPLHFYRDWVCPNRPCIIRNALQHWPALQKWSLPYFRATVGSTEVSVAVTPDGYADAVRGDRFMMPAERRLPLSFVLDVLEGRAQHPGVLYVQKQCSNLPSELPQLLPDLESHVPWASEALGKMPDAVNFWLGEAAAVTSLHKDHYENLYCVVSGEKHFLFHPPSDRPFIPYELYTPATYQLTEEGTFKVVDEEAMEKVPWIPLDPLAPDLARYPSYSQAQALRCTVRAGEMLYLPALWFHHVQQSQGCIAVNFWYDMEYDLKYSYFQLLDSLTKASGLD
# UniProt P19823: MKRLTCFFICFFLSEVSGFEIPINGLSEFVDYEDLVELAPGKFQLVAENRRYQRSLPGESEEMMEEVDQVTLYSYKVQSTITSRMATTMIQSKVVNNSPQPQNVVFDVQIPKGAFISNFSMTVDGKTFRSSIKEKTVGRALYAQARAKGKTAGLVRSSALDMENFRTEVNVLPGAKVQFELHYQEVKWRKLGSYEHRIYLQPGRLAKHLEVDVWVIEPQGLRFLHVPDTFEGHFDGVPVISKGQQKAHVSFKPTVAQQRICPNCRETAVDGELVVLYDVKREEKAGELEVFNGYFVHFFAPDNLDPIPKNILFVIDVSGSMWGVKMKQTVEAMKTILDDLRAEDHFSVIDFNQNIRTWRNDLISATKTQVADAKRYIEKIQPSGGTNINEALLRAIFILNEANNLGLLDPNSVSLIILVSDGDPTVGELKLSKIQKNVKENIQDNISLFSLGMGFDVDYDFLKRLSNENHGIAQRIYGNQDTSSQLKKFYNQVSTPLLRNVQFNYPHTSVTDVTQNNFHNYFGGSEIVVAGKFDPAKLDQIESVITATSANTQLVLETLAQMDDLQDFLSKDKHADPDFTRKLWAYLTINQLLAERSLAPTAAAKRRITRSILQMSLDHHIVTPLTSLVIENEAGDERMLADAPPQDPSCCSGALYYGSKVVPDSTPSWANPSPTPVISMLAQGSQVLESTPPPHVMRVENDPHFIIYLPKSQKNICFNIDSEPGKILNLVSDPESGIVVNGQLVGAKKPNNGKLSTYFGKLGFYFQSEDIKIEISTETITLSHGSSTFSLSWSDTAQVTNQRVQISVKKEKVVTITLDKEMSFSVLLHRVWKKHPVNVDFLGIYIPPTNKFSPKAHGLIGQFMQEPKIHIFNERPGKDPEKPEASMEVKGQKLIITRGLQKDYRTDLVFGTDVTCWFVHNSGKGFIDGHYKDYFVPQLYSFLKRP
# UniProt O43731: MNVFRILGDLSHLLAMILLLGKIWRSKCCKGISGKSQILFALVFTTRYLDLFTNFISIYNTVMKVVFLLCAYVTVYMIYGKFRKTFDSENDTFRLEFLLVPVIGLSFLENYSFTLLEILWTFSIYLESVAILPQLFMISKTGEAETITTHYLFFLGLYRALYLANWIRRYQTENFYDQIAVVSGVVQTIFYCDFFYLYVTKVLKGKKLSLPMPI
# UniProt O43736: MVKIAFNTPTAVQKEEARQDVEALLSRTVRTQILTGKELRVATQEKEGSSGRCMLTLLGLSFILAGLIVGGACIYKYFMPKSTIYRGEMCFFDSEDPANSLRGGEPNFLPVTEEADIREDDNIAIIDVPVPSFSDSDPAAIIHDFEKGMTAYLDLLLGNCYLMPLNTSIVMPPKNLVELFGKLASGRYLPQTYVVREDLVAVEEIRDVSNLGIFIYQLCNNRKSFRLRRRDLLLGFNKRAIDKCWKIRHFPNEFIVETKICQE
# Some of the results follow.
# Compound: Cc1cccc(CC(=O)N2CCc3c2ccc(-c2cn(C)c4ncnc(N)c24)c3F)n1
# Assay: log2 fold change, soluble protein after heating vs DMSO (PISA); higher = thermal stabilisation; K562 lysate, 10 uM; active = over 0.2 and 3.5 SD of the protein, either way, in both replicates (recomputed)
# Method in brief: (§1)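 To prepare the extract, K562 pellets were dounce-homogenised in PBS pH 7.4 with 1 mM MgCl2, giving crude material at 1 mg/mL protein. This was treated with 10 μM compound for 30 min, then heated in aliquots for 3 min over 48°C-58°C before pooling and addition of NP-40 to 0.5% at 4°C. Centrifugation at 21,000xg for 90 min left soluble protein in the supernatant, which TMTpro 16plex LC-MS/MS quantified with equalised channel sums. Results are log-two fold changes in thermal stability compared with solvent controls, from duplicates.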
row,Target,log2 fold change
1,JAG2 (UniProt Q9Y219),inactive: 0.127
2,KCNK1 (UniProt O00180),inactive: 0.017
3,KCMF1 (UniProt Q9P0J7),inactive: 0.057
4,ITGAE (UniProt P38570),inactive: 0.282
5,KAT2A (UniProt Q92830),inactive: -0.053
6,KDM3B (UniProt Q7LBC6),inactive: 0.117
7,KDM1B (UniProt Q8NB78),inactive: 0.084
8,ITGA2B (UniProt P08514),inactive: 0.052
9,IRS2 (UniProt Q9Y4H2),inactive: 0.307
10,KAT6B (UniProt Q8WYB5),inactive: 0.158
11,IPO5 (UniProt H0Y3V4),inactive: -0.332
12,IQGAP3 (UniProt Q86VI3),inactive: 0.059
13,ITPR1 (UniProt Q14643),inactive: 0.022
14,IQUB (UniProt Q8NA54),inactive: 0.031
15,JAGN1 (UniProt Q8N5M9),inactive: -0.008
16,IQGAP1 (UniProt P46940),inactive: 0.025
17,JAK3 (UniProt P52333),active: -0.612
18,IP6K1 (UniProt Q92551),inactive: 0.063
19,ITPRID2 (UniProt P28290),inactive: 0.009
20,JMJD7 (UniProt P0C870),inactive: 0.116
21,KCNK5 (UniProt O95279),inactive: 0.091
22,ITIH2 (UniProt P19823),inactive: -0.075
23,KCNN4 (UniProt O15554),inactive: -0.261
24,KATNBL1 (UniProt Q9H079),inactive: 0.01
25,JMJD4 (UniProt Q9H9V9),inactive: 0.072
26,KDELR3 (UniProt O43731),inactive: 0.004
27,KDELR1 (UniProt P24390),inactive: 0.29
28,ITM2A (UniProt O43736),inactive: -0.016
29,ITGB1BP1 (UniProt O14713),inactive: -0.028

# Compound: Cc1cn(-c2cc(NC(=O)c3ccc(C)c(Nc4nccc(-c5cccnc5)n4)c3)cc(C(F)(F)F)c2)cn1 [nilotinib]
# Assay: as above
# Method in brief: as §1
row,Target,log2 fold change
1,KCNK1 (UniProt O00180),inactive: -0.257
2,KCMF1 (UniProt Q9P0J7),inactive: 0.039
3,ITGAE (UniProt P38570),inactive: 0.024
4,KAT2A (UniProt Q92830),inactive: -0.02
5,JTB (UniProt O76095),inactive: -0.121
6,KDM3B (UniProt Q7LBC6),inactive: -0.021
7,KDM1B (UniProt Q8NB78),inactive: 0.049
8,ITGA2B (UniProt P08514),inactive: 0.138
9,IRS2 (UniProt Q9Y4H2),inactive: -0.05
10,IPO5 (UniProt H0Y3V4),inactive: -0.078
11,IQGAP3 (UniProt Q86VI3),inactive: -0.003
12,IST1 isoform 2 (UniProt P53990),inactive: -0.145
13,JAGN1 (UniProt Q8N5M9),inactive: 0.017
14,IQGAP1 (UniProt P46940),inactive: -0.001
15,IP6K1 (UniProt Q92551),inactive: -0.049
16,ITPRID2 (UniProt P28290),inactive: 0.007
17,JMJD7 (UniProt P0C870),inactive: -0.294
18,KCNK5 (UniProt O95279),inactive: 0.113
19,IQCD (UniProt Q96DY2),inactive: -0.153
20,KDF1 (UniProt Q8NAX2),inactive: -0.017
21,ITIH2 (UniProt P19823),inactive: 0.043
22,KCNN4 (UniProt O15554),inactive: -0.172
23,KATNBL1 (UniProt Q9H079),inactive: -0.057
24,JMJD4 (UniProt Q9H9V9),inactive: -0.049
25,KDELR3 (UniProt O43731),inactive: 0.05
26,ITM2A (UniProt O43736),inactive: -0.199
27,ITGB1BP1 (UniProt O14713),inactive: -0.013

# Compound: Cc1nc(Nc2n[nH]c3c2CN(C(=O)N[C@H](CN(C)C)c2ccccc2)C3(C)C)c2sccc2n1
# Assay: as above
# Method in brief: as §1
row,Target,log2 fold change
1,KCNK1 (UniProt O00180),inactive: 0.194
2,KCMF1 (UniProt Q9P0J7),inactive: 0.018
3,ITGAE (UniProt P38570),inactive: -0.12
4,KAT2A (UniProt Q92830),inactive: 0.062
5,JTB (UniProt O76095),inactive: 0.004
6,KDM3B (UniProt Q7LBC6),inactive: -0.012
7,KDM1B (UniProt Q8NB78),inactive: -0.019
8,ITGA2B (UniProt P08514),inactive: -0.055
9,IRS2 (UniProt Q9Y4H2),inactive: -0.044
10,IPO5 (UniProt H0Y3V4),inactive: -0.157
11,IQGAP3 (UniProt Q86VI3),inactive: 0.008
12,IST1 isoform 2 (UniProt P53990),inactive: 0.064
13,JAGN1 (UniProt Q8N5M9),inactive: 0.046
14,IQGAP1 (UniProt P46940),inactive: -0.004
15,IP6K1 (UniProt Q92551),inactive: -0.028
16,ITPRID2 (UniProt P28290),inactive: 0.082
17,JMJD7 (UniProt P0C870),inactive: -0.116
18,KCNK5 (UniProt O95279),inactive: -0.858
19,IQCD (UniProt Q96DY2),inactive: 0.064
20,KDF1 (UniProt Q8NAX2),inactive: 0.041
21,ITIH2 (UniProt P19823),inactive: 0.03
22,KCNN4 (UniProt O15554),inactive: -0.029
23,KATNBL1 (UniProt Q9H079),inactive: -0.143
24,JMJD4 (UniProt Q9H9V9),inactive: 0.006
25,KDELR3 (UniProt O43731),inactive: 0.004
26,ITM2A (UniProt O43736),inactive: -0.228
27,ITGB1BP1 (UniProt O14713),inactive: 0.104
